Test results from PubChem BioAssay AID192 (DTP/NCI, 2004).
The list shows only some results of the screen, not a fair sample: it gathers tests that were run many times, whatever their T/C, doses with no T/C, and many T/C values between a quarter and a half above the control. Further doses and runs are listed elsewhere. T/C: endpoint of the treated group in % of that of the vehicle group. Some entries give survivors of the animals treated and no T/C: the source files T/C as zero there, which appears to mark a toxic dose or a test without result, not a measured value. Some survivor counts are full or nearly so, which does not show that the dose was tolerated: the source hardly ever lists a survival T/C far under the control, and the zero likely stands for such cases as well. Survivors were counted at the toxicity check, usually on the fifth day, unless a day is given; later deaths do not show. Schedule codes are those of the source, read here as Q, the interval in days (D) or hours (H), X, the number of doses. Some entries hold several experiments; the values are given in rising order. Additions like (4×) stand for listed records that agree. For survival time, this PubChem deposit counts one and a half times the control or more as active, and values a quarter to a half above the control carry no call in these data; other NCI protocols may use other cut-offs. Some T/C values carry the count of animals alive at the toxicity check (mostly the fifth day); without a count, all were alive then. Numbered stars: 1 amine (or outer) side, 2 acyl side, 3 side chain; on linkers, the order of the positions; unused ones are H or OH. Bridge positions count the residues as written; N and C are the ends. Square brackets hold non-standard residues; d marks the D form. Peptide text beside a SMILES is read from it. I, II: the chains in the order shown. Actinocin(9to1) = Cc1c2oc3c(C)ccc(C(=O)[*:1])c3nc-2c(C(=O)[*:2])c(N)c1=O; aThr = C[C@H](O)[C@H](N)C(=O)O; NMeV = CN[C@H](C(=O)O)C(C)C; Sar = CNCC(=O)O

Test system: BDF1 mice, B16 melanoma ip, median survival T/C
Assay: NCI In Vivo Anticancer Drug Screen. Data for tumor model B16 Melanoma (intraperitoneal) in B6D2F1 (BDF1) mice
Conditions: T/C endpoint: median survival time, higher T/C = longer survival
Outline: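 Transplantable tumor model; survival or tumor size measured; reported as T/C, treated over vehicle control.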

[1] = dose: 0.02 mg/kg/injection, schedule: Q01DX009 (ip), vehicle: saline
[2] = dose: 0.1 mg/kg/injection, schedule: Q01DX009 (ip), vehicle: saline

SMILES: Cc1c2oc3c(C)ccc(C(=O)N[C@@H]4C(=O)N[C@H](C(C)C)C(=O)N5CCC[C@H]5C(=O)N(C)CC(=O)N(C)[C@@H](C(C)C)C(=O)O[C@H]4C)c3nc-2c(C(=O)N[C@@H]2C(=O)N[C@H](C(C)C)C(=O)N3CCC[C@H]3C(=O)N(C)CC(=O)N(C)[C@@H](C(C)C)C(=O)O[C@H]2C)c(N)c1=O (I: [aThr][dV]P[Sar][NMeV] / II: [aThr][dV]P[Sar][NMeV]; ester I:1-I:C, II:1-II:C; linker I:N-II:N via Actinocin(9to1))
- T/C (dose: 0.01 mg/kg/injection, schedule: Q01DX009 (ip), vehicle: saline, evaluated on day 45): 112, 126, 145, 148 % of control
- T/C (dose: 0.01 mg/kg/injection, schedule: Q01DX009 (ip), vehicle: saline, evaluated on day 60): 132 % of control
- survivor count (dose: 0.01 mg/kg/injection, schedule: Q01DX009 (ip), vehicle: saline): 0 of 6 and 6 of 6
- T/C [1]: 128 % of control [5 of 6 alive]
- survivor count [1]: 0 of 6 and 6 of 6
- T/C (dose: 0.03 mg/kg/injection, schedule: Q01DX009 (ip), vehicle: saline, evaluated on day 5): 159 % of control
- T/C (dose: 0.03 mg/kg/injection, schedule: Q01DX009 (ip), vehicle: saline, evaluated on day 45): 107, 121, 158, 176 % of control
- T/C (dose: 0.05 mg/kg/injection, schedule: Q01DX009 (ip), vehicle: saline, evaluated on day 5): 177 % of control
- T/C (dose: 0.05 mg/kg/injection, schedule: Q01DX009 (ip), vehicle: saline, evaluated on day 45): 104, 125, 138, 185 % of control
- T/C (dose: 0.05 mg/kg/injection, schedule: Q01DX009 (ip), vehicle: saline, evaluated on day 60): 156 % of control
- survivor count (dose: 0.05 mg/kg/injection, schedule: Q01DX009 (ip), vehicle: saline): 0 of 6 and 6 of 6
- T/C [2]: 112 % of control
- survivor count [2]: 0 of 6 and 6 of 6 (2×)
- survivor count (dose: 0.1 mg/kg/injection, schedule: Q01DX009 (ip), vehicle: water): 10 of 10
- T/C (dose: 0.1 mg/kg/injection, schedule: Q04DX003 (ip), vehicle: saline, evaluated on day 5): 143 % of control
- T/C (dose: 0.1 mg/kg/injection, schedule: Q04DX003 (ip), vehicle: saline, evaluated on day 10): 135 % of control
- T/C (dose: 0.13 mg/kg/injection, schedule: Q01DX001 (ip), vehicle: saline): 125 % of control
- T/C (dose: 0.2 mg/kg/injection, schedule: Q01DX001 (ip), vehicle: water): 133 % of control
- survivor count (dose: 0.2 mg/kg/injection, schedule: Q01DX009 (ip), vehicle: saline): 5 of 6
- survivor count (dose: 0.2 mg/kg/injection, schedule: Q01DX009 (ip), vehicle: water): 10 of 10
- T/C (dose: 0.2 mg/kg/injection, schedule: Q04DX003 (ip), vehicle: saline): 130 % of control
- survivor count (dose: 0.23 mg/kg/injection, schedule: Q01DX009 (ip), vehicle: saline + alcohol): 10 of 10
- T/C (dose: 0.25 mg/kg/injection, schedule: Q01DX001 (ip), vehicle: saline): 126 % of control
- T/C (dose: 0.4 mg/kg/injection, schedule: Q01DX001 (ip), vehicle: water): 125 % of control
- survivor count (dose: 0.4 mg/kg/injection, schedule: Q01DX009 (ip), vehicle: saline): 0 of 6
- survivor count (dose: 0.45 mg/kg/injection, schedule: Q01DX009 (ip), vehicle: saline + alcohol): 0 of 10
- T/C (dose: 0.5 mg/kg/injection, schedule: Q01DX001 (ip), vehicle: saline): 131 % of control
- survivor count (dose: 0.8 mg/kg/injection, schedule: Q01DX001 (ip), vehicle: water): 7 of 10
- survivor count (dose: 0.9 mg/kg/injection, schedule: Q01DX009 (ip), vehicle: saline + alcohol): 0 of 10
- survivor count (dose: 1.6 mg/kg/injection, schedule: Q01DX001 (ip), vehicle: water): 0 of 10
- survivor count (dose: 1.8 mg/kg/injection, schedule: Q01DX009 (ip), vehicle: saline + alcohol): 0 of 10
- T/C (dose: 1.0 micrograms/kg/injection, schedule: Q01DX009 (ip), vehicle: saline): 130 % of control
- T/C (dose: 6.25 micrograms/kg/injection, schedule: Q01DX009 (ip), vehicle: saline): 131 % of control
- T/C (dose: 7.8 micrograms/kg/injection, schedule: Q01DX009 (ip), vehicle: saline + alcohol): 139 % of control
- T/C (dose: 8.0 micrograms/kg/injection, schedule: Q01DX009 (ip), vehicle: saline): 142 % of control
- T/C (dose: 8.0 micrograms/kg/injection, schedule: Q01DX017 (ip), vehicle: saline): 142 % of control
- T/C (dose: 12.5 micrograms/kg/injection, schedule: Q01DX009 (ip), vehicle: saline, evaluated on day 45): 129 % of control
- T/C (dose: 12.5 micrograms/kg/injection, schedule: Q01DX009 (ip), vehicle: saline, evaluated on day 60): 109, 123, 123 [5 of 6 alive], 125, 127, 130, 141, 146 [9 of 10 alive], 150, 155 % of control
- survivor count (dose: 12.5 micrograms/kg/injection, schedule: Q01DX009 (ip), vehicle: saline): 6 of 6
- T/C (dose: 12.5 micrograms/kg/injection, schedule: Q01DX009 (ip), vehicle: water): 132 and 139 % of control
- T/C (dose: 13.0 micrograms/kg/injection, schedule: Q01DX009 (ip), vehicle: saline + alcohol): 140 % of control
- T/C (dose: 13.0 micrograms/kg/injection, schedule: Q01DX009 (ip), vehicle: saline, evaluated on day 45): 114 % of control
- T/C (dose: 13.0 micrograms/kg/injection, schedule: Q01DX009 (ip), vehicle: saline, evaluated on day 60): 106, 109, 111, 113 (2×), 115, 119, 121, 125 [5 of 6 alive], 136, 140, 141, 157, 165, 172, 187, 200 % of control
- survivor count (dose: 13.0 micrograms/kg/injection, schedule: Q01DX009 (ip), vehicle: saline): 6 of 6
- T/C (dose: 18.0 micrograms/kg/injection, schedule: Q01DX009 (ip), vehicle: saline): 140 % of control
- T/C (dose: 21.6 micrograms/kg/injection, schedule: Q01DX009 (ip), vehicle: saline + alcohol): 131 % of control
- T/C (dose: 25.0 micrograms/kg/injection, schedule: Q01DX009 (ip), vehicle: saline, evaluated on day 45): 111 and 141 % of control
- T/C (dose: 25.0 micrograms/kg/injection, schedule: Q01DX009 (ip), vehicle: saline, evaluated on day 60): 94, 100, 106, 107, 111, 115, 116 [5 of 6 alive], 118, 120, 122, 125, 126, 130, 131, 131 [8 of 10 alive], 141 (2×), 142, 147 (2×), 151, 163, 164, 170, 175, 190, 200, 203, 231 % of control
- survivor count (dose: 25.0 micrograms/kg/injection, schedule: Q01DX009 (ip), vehicle: saline): 5 of 6 and 6 of 6
- T/C (dose: 25.0 micrograms/kg/injection, schedule: Q01DX009 (ip), vehicle: water, evaluated on day 45): 144 and 149 % of control
- T/C (dose: 25.0 micrograms/kg/injection, schedule: Q01DX009 (ip), vehicle: water, evaluated on day 60): 125 % of control
